Some results were stated once for a whole list of compounds, not compound by compound. Some compounds share one range, which may span the group rather than tell each member.
System: Tetranychus urticae
Experiment: Test against Tetranychus urticae (spraying test)
Assay type: in vivo
Conditions: 100 ppm of the active compound; adult mites on kidney bean; 7 days after spraying

| Structure (SMILES) | acaricidal rate |
| --- | --- |
| CC(=O)N(Cc1ccc(C2=NOC(c3cc(Cl)cc(Cl)c3)(C(F)(F)F)C2)cc1)C(C)=O (centres unmarked) [1-2] | 98 (1 to 4 mites survived/propagated) |
| CCC(=O)N(Cc1ccc(C2=NOC(c3cc(Cl)cc(Cl)c3)(C(F)(F)F)C2)cc1)Cc1ccccn1 (centres unmarked) [1-6] | 98 (1 to 4 mites survived/propagated) |
| O=CNCc1ccc(C2=NOC(c3cc(Cl)cc(Cl)c3)(C(F)(F)F)C2)cc1Br (centres unmarked) [1-12] | 98 (1 to 4 mites survived/propagated) |
| CC(=O)NCc1ccc(C2=NOC(c3cc(Cl)cc(Cl)c3)(C(F)(F)F)C2)cc1Br (centres unmarked) [1-13] | 98 (1 to 4 mites survived/propagated) |
| CC(=O)N(Cc1cccnc1)Cc1ccc(C2=NOC(c3cc(Cl)cc(Cl)c3)(C(F)(F)F)C2)cc1Br (centres unmarked) [1-16] | 98 (1 to 4 mites survived/propagated) |
| CC(=O)N(Cc1ccncc1)Cc1ccc(C2=NOC(c3cc(Cl)cc(Cl)c3)(C(F)(F)F)C2)cc1Br (centres unmarked) [1-17] | 98 (1 to 4 mites survived/propagated) |
| CCC(=O)NCc1ccc(C2=NOC(c3cc(Cl)cc(Cl)c3)(C(F)(F)F)C2)cc1Br (centres unmarked) [1-19] | 98 (1 to 4 mites survived/propagated) |
| CCCC(=O)NCc1ccc(C2=NOC(c3cc(Cl)cc(Cl)c3)(C(F)(F)F)C2)cc1Br (centres unmarked) [1-20] | 98 (1 to 4 mites survived/propagated) |
| CC(C)C(=O)NCc1ccc(C2=NOC(c3cc(Cl)cc(Cl)c3)(C(F)(F)F)C2)cc1Br (centres unmarked) [1-21] | 98 (1 to 4 mites survived/propagated) |
| O=C(NCc1ccc(C2=NOC(c3cc(Cl)cc(Cl)c3)(C(F)(F)F)C2)cc1Br)c1ccccc1 (centres unmarked) [1-24] | 98 (1 to 4 mites survived/propagated) |
| O=C(NCc1ccc(C2=NOC(c3cc(Cl)cc(Cl)c3)(C(F)(F)F)C2)cc1Br)c1cccnc1 (centres unmarked) [1-26] | 98 (1 to 4 mites survived/propagated) |
| O=C(NCc1ccc(C2=NOC(c3cc(Cl)cc(Cl)c3)(C(F)(F)F)C2)cc1Br)c1ccncc1 (centres unmarked) [1-27] | 98 (1 to 4 mites survived/propagated) |
| O=C(NCc1ccc(C2=NOC(c3cc(Cl)cc(Cl)c3)(C(F)(F)F)C2)cc1Br)c1ccccc1F (centres unmarked) [1-28] | 98 (1 to 4 mites survived/propagated) |
| O=C(NCc1ccc(C2=NOC(c3cc(Cl)cc(Cl)c3)(C(F)(F)F)C2)cc1Br)c1ccccc1Cl (centres unmarked) [1-31] | 98 (1 to 4 mites survived/propagated) |
| O=C(NCc1ccc(C2=NOC(c3cc(Cl)cc(Cl)c3)(C(F)(F)F)C2)cc1Br)c1ccc(Cl)cc1 (centres unmarked) [1-33] | 98 (1 to 4 mites survived/propagated) |
| O=C(NCc1ccc(C2=NOC(c3cc(Cl)cc(Cl)c3)(C(F)(F)F)C2)cc1Br)c1ccccc1Br (centres unmarked) [1-34] | 98 (1 to 4 mites survived/propagated) |

| Structure (SMILES) | acaricidal rate |
| --- | --- |
| Cc1ccccc1C(=O)NCc1ccc(C2=NOC(c3cc(Cl)cc(Cl)c3)(C(F)(F)F)C2)cc1Br (centres unmarked) [1-35] | 98 (1 to 4 mites survived/propagated) |
| C=CC(=O)NCc1ccc(C2=NOC(c3cc(Cl)cc(Cl)c3)(C(F)(F)F)C2)cc1Br (centres unmarked) [1-36] | 98 (1 to 4 mites survived/propagated) |
| CS(=O)(=O)NCc1ccc(C2=NOC(c3cc(Cl)cc(Cl)c3)(C(F)(F)F)C2)cc1Br (centres unmarked) [1-38] | 98 (1 to 4 mites survived/propagated) |
| CNC(=O)NCc1ccc(C2=NOC(c3cc(Cl)cc(Cl)c3)(C(F)(F)F)C2)cc1Br (centres unmarked) [1-40] | 98 (1 to 4 mites survived/propagated) |
| CN(C)C(=O)NCc1ccc(C2=NOC(c3cc(Cl)cc(Cl)c3)(C(F)(F)F)C2)cc1Br (centres unmarked) [1-41] | 98 (1 to 4 mites survived/propagated) |
| CC(=O)N(C)Cc1ccc(C2=NOC(c3cc(Cl)cc(Cl)c3)(C(F)(F)F)C2)cc1Br (centres unmarked) [1-46] | 98 (1 to 4 mites survived/propagated) |
| CC(=O)NCc1ccc(C2=NOC(c3cc(Cl)cc(Cl)c3)(C(F)(F)F)C2)cc1F (centres unmarked) [1-57] | 98 (1 to 4 mites survived/propagated) |
| CC(=O)NCc1ccc(C2=NOC(c3cc(Cl)cc(Cl)c3)(C(F)(F)F)C2)cc1Cl (centres unmarked) [1-58] | 98 (1 to 4 mites survived/propagated) |
| CC(=O)NCc1ccc(C2=NOC(c3cc(Cl)cc(Cl)c3)(C(F)(F)F)C2)cc1I (centres unmarked) [1-59] | 98 (1 to 4 mites survived/propagated) |
| CC(=O)NCc1ccc(C2=NOC(c3cc(Cl)cc(Cl)c3)(C(F)(F)F)C2)cc1C#N (centres unmarked) [1-62] | 98 (1 to 4 mites survived/propagated) |
| CC(=O)N(Cc1ccc(C2=NOC(c3cc(Cl)cc(Cl)c3)(C(F)(F)F)C2)cc1Br)N=C(C)C (centres unmarked) [1-90] | 98 (1 to 4 mites survived/propagated) |
| CC(=O)NCc1ccc(C2=NOC(C)(c3cc(Cl)cc(Cl)c3)C2)cc1Br (centres unmarked) [1-93] | 98 (1 to 4 mites survived/propagated) |
| CC(=O)NCc1ccc(C2=NOC(c3ccc(Cl)c(Cl)c3)(C(F)(F)F)C2)cc1Br (centres unmarked) [1-94] | 98 (1 to 4 mites survived/propagated) |
| CC(=O)NCc1ccc(C2=NOC(c3cccc(C(F)(F)F)c3)(C(F)(F)F)C2)cc1Br (centres unmarked) [1-99] | 98 (1 to 4 mites survived/propagated) |
| CC(=O)NCc1ccc(C2=NOC(c3cc(C(F)(F)F)cc(C(F)(F)F)c3)(C(F)(F)F)C2)cc1Br (centres unmarked) [1-101] | 98 (1 to 4 mites survived/propagated) |
| CC(=O)NCc1ccc(C2=NOC(c3cccc([N+](=O)[O-])c3)(C(F)(F)F)C2)cc1Br (centres unmarked) [1-102] | 98 (1 to 4 mites survived/propagated) |

Source: patent US8372867B2, “Insecticidal aryl isoxazoline derivatives” (Bayer CropScience AG, priority 2007, dated 2013)
